Source: article PMC11123929, “A Comparative Study and Prediction of the Ex Vivo Permeation of Six Vaginally Administered Drugs across Five Artificial Membranes and Vaginal Tissue” (Molecules, 2024)

Key:
[1] = Franz diffusion cell in vitro permeability, PVDF membrane; conditions: pH 7.4
From the text: (§1) There are many membranes available on the market that are grouped as cellulosic and polymeric. Taking into account those that are more convenient and economical, two synthetic membranes and their combinations were used. Synthetic PVDF (polyvinylidene difluoride) and cellulose acetate (Table S2) membranes were pre-treated according to the supplier’s instructions. Cellulose membranes were further treated to acquire their lipophilic properties. Thus, they were placed on a flat glass surface and completely coated with IPM (isopropyl myristate) solution. The cellulose membrane was allowed to incubate in the IPM solution for 30 min. […]
(§2) The in vitro permeability profile of each compound was evaluated using the Franz diffusion cell setup (PermeGear, Hellertown, PA, USA). […]
(§3) At specified intervals (t = 2, 3, 4, 6, and 8 h), 0.5 mL of the samples was taken from the receptor compartment and replaced with an equal volume of freshly prewarmed receptor medium. The concentration of each API was quantified using the appropriate HPLC method (Section 4.1) without sample pretreatment. […] Each sample was analyzed in triplicate, and its cumulative release over time was plotted (Figure 2). The steady-state flux (Jss) was determined by plotting the permeation of the API per unit area (μg/cm^2) against time (h) and calculating the slope of the linear portion of the resulting line. […]

in vitro = conditions: cow
Procedure: Ex vivo experiments were conducted on cow vaginal mucosa sourced from a local slaughterhouse. Tissues with an exposure area of 0.19 cm^2 were placed in a Franz diffusion cell with the epithelial mucosa side facing the donor compartment. In the donor compartment, 200 μL of API’s solution in VFS (pH 4.5) was added (37 °C ± 0.2 °C), while the acceptor was filled with 5 mL of PBS at pH 7.4 (constant stirring at 100 rpm).
Samples were centrifuged at 2000× g for 10 min, and supernatants were analyzed using HPLC as described in Section 4.1.
The procedure for extracting the drug from the tissue was as follows: after the experiment was completed, each tissue was carefully removed from the Franz cell and immersed in 5 mL of methanol. It was then sonicated for 30 min, followed by 10 min of vertexing, another 30 min in the sonicator, and 10 min of vertexing. Finally, the samples were centrifuged for 20 min at 5000× g, and the supernatant was collected for analysis.

[2] = Retention on reversed-phase C4 HPLC column as indication of tissue penetration; format: physicochemical; conditions: ACE C4 150 × 4.6 mm, MeOH-H2O 10:90, 0.5 mL/min, 40 °C
Procedure: Under the given conditions, it was assumed that the stationary phase simulates the tissue while the aqueous mobile phase represents the surrounding space. […] However, it should be clarified that under the present conditions, it was not possible to conduct a global assessment of the phenomenon because not all of the studied substances penetrated the tissue. However, this procedure could be used as an initial indication for the behaviors of potential drug candidates. […] The analysis was carried out under isocratic conditions with a flow rate of 0.5 mL/min and a mobile phase consisting of MeOH-H2O at 10:90 (v/v).

[3] = Franz diffusion cell in vitro permeability, hybrid IPM-cellulose membrane; conditions: pH 7.4
From the text: as §1, §2, §3

[4] = Franz diffusion cell in vitro permeability, hybrid PVDF-cellulose membrane; conditions: pH 7.4
From the text: as §1, §2, §3

## CCN(CC)CC(=O)Nc1c(C)cccc1C [LIDO, lidocaine]
[1]
  Papp at 8 h: 1.39 ×10⁻⁶ cm/s
In vitro
  Papp at 8 h, 10 mg/mL: 11.7 ×10⁻⁶ cm/s
[2]
  Retention time (tr) in column C4: 5.94 min
[3]
  Papp at 8 h: 3.33 ×10⁻⁶ cm/s
[4]
  Papp at 8 h: 3.33 ×10⁻⁶ cm/s
